The text below walks through data of patent US20160256535A1, “HEXAPEPTIDE AND USES THEREOF” (priority 2013, published 2016).

Holding throughout (experiment): Determination of platinum in culture medium and cell pellet by atomic absorption spectrophotometry
What all share (format): cell-based, human
Common to all, as to settings: 92 μM, 3 hours

The subject of one data set is A2780. The method, then: (§1) The cells to be examined, after the incubation period, were harvested, washed twice in buffered solution (PBS) and treated with 50 μl of 35% HNO3 for 16 hours. The platinum (Pt) contained in the culture medium or in the cell pellet was determined by spectrophotometer at atomic absorption (Analyst 800, Perkin-Elmer, Norwalk, Conn.) using the following criteria: temperature of pretreatment, 1300° C., temperature of atomizing 2200° C. 0.015 μg of palladium were used (palladium has been used for the modification of the matrix) and 0.01 μg of Mg (NO3)2 as a modifier of the matrix. The determinations were performed using a graphite furnace equipped with the correction system of the Zeeman effect. For the determination of the metal, tubes of pyrolytic graphite coated with THGA were used (Perkin-Elmer) with an integrated “vov-type platform” system. A standard solution of platinum in 2.5% HNO3 (Spectrascan) was used as a mother solution for the construction of a calibration curve with three points of reference. Each determination was performed independently, in triplicate (11).

The subject of a further data set is DU145. The method, then: as §1
The test system of the next data set is HUH-7. The method, then:
as §1

The next data set concerns MCF-7. The method, then:
as §1

The test system of the next data set is A375. The method, then: as §1

In the case of Lp-CC (AVCGTG), the “Pt in the culture medium” value amounted to 2437.5 µg/L in the data set with A2780, 2476 µg/L in the data set with DU145, 2257 µg/L with HUH-7 and 2257 µg/L in the data set with MCF-7.

On to `N.N.[Cl][Pt][Cl]` [CC, cisplatin, reference compound], for which the “Pt in the culture medium” value with A2780 stood at 21715 µg/L; in the data set with A375, 22095 µg/L; in the data set with DU145 it was 18455 µg/L; in the data set with HUH-7, 18885 µg/L; in the data set on MCF-7 it was 29200 µg/L.
